From patent US20250059231A1, “Protease inhibitors” (priority 2021, published 2025)
Some of these results come from one statement about several compounds together. Where a SMILES comes first, the peptide text is derived from it. [ ]: non-standard residue; d: D form. The star is where a group is joined. Benzoyl(4-Ph) = O=C(c1ccc(-c2ccccc2)cc1)*; Palmitoyl = CCCCCCCCCCCCCCCC(=O)*; X2 = O=C(c1ccc(-c2cccs2)s1)*; X1 = FC(F)(F)c1ccc(CN*)cc1; Heptanoyl = CCCCCCC(=O)*; X3 = COc1cccc(CN*)c1; Bz = O=C(c1ccccc1)*; NHHex = CCCCCCN*

biological target: T1, DENV protease (Dengue virus type 2, UniProt P29990); experiment: not given; format: biochemical; conditions: not given
T1 construct: The virus-encoded dengue protease comprises the amino-terminal 180 amino acids of NS3 (NS3pro) of the polyprotein
Description: (§1) Dilutions were made starting from 10 mM stock solutions in DMSO and final concentrations were measured in triplicates. The inhibitors were preincubated for 15 min with DENV protease (100 nM) in the assay buffer (50 mM Tris-HCl pH 9.0, ethylene glycol (10% v/v), and 0.0016% Brij 58). The enzymatic reaction was initiated by the addition of the FRET substrate (final concentration 50 μM) to obtain a final assay volume of 100 μL per well. The enzymatic activity was monitored for 15 min and determined as a slope of relative fluorescence units per second (RFU/s) for each concentration. The mean of the triplicates were plotted against the corresponding concentration in CDDVault to determine the IC50-values. Analogous procedures were used to determine the inhibitory potency on WNV (Kühl et al., J. Med. Chem. 2020, 63 (15): 8179-8197) and ZIKA protease (Nitsche et al., ACS Med. Chem. Lett. 2019 Feb. 14; 10 (2): 168-174). For selectivity screening of active candidates, similar biochemical assays with human serine proteases trypsin (Weigel et al., J. Med. Chem. 2015, 58 (19), 7719-7733.) and/or thrombin (Nitsche et al., J. Med. Chem. 2013, 56 (21), 8389-8403) were used.

| Compound | IC50 [µM] |
| --- | --- |
| CCCCCCCCCCCCCCCC(=O)N[C@@H](CCCCN)C(=O)N[C@@H](C)C(=O)N[C@@H](CCCCN)C(=O)c1ccccc1 [compound 174] | ≤ 10 |
| CCCCCCCCCCCCCCCC(=O)N[C@@H](CCCCN)C(=O)N[C@@H](C)C(=O)N[C@@H](C)C(=O)N[C@H](C=O)CCCCN [compound 180] (Palmitoyl-KAAK-aldehyde) | ≤ 10 |
| CCCCCCCCCCCCCCCC(=O)N[C@@H](CCCCN)C(=O)N[C@@H](C)C(=O)N[C@@H](C)C(=O)N[C@@H](C=O)CCCCN [compound 181] (Palmitoyl-KAA[dK]-aldehyde) | ≤ 10 |
| CCCCCCCCCCCCCCCC(=O)N[C@@H](CCCCN)C(=O)N[C@@H](C)C(=O)N[C@@H](CCCCN)B(O)O [compound 182] | ≤ 10 |
| CCCCCCCCCCCCCCCC(=O)N[C@@H](CCCCN)C(=O)N[C@@H](C)C(=O)N[C@@H](C)C(=O)N[C@@H](CCCCN)C(O)O [compound 183] | ≤ 10 |

biological target: human Thrombin (Homo sapiens, UniProt P00734); experiment: Selectivity screening, human serine protease thrombin; format: biochemical; conditions: at 25 M
Description: as §1, with “By catalytic activity of the protease, the cleaved substrate results in increased fluorescence that can be monitored using a BMG Labtech Fluostar OPTIMA Microtiter fluorescence plate reader (excitation wavelength of 320 nm and a monitored emission wavelength of 405 nm). Dilutions” for “Dilutions”

| Compound | inhibition of human Thrombin |
| --- | --- |
| CCCCCCCCCCCCCCCC(=O)N[C@@H](CCCCN)C(=O)N[C@@H](C)C(=O)N[C@@H](C)C(=O)N[C@H](CCc1ccccc1)C(=O)C(N)=O [compound 5] | less than 20% |
| CCCCCCCCCCCCCCCC(=O)N[C@@H](CCCCN)C(=O)N1CCC[C@H]1C(=O)N[C@@H](C)C(=O)N[C@@H](CCc1ccccc1)C(=O)C(N)=O [compound 6] | less than 20% |
| CCCCCCCCCCCCCCCC(=O)N[C@@H](CCCCN)C(=O)N1CCC[C@H]1C(=O)N[C@@H](C)C(=O)N[C@@H](C(N)=O)c1ccc(OCc2ccccc2)cc1 [compound 129] | less than 20% |
| CCCCCCCCCCCCCCCC(=O)N[C@@H](CCCCN)C(=O)N[C@@H](C)C(=O)N[C@@H](C)C(=O)N[C@H](CCCCN)C(=O)c1ccccc1 [compound 136] | less than 20% |
| CCCCCCCCCCCCCCCC(=O)N[C@@H](CCCCN)C(=O)N[C@@H](C)C(=O)N[C@@H](C)C(=O)N[C@@H](CCCCN)C(=O)c1ccccc1 [compound 137] | less than 20% |
| CCCCCCCCCCCCCCCC(=O)N[C@@H](CCCCN)C(=O)N[C@@H](C)C(=O)N[C@@H](CCCCN)C(=O)c1ccccc1 [compound 174] | less than 20% |

test system: DENV; experiment: not given; conditions: read-out: EC50 for DENV

| Compound | EC50 [µM] |
| --- | --- |
| C[C@H](NC(=O)c1ccc(-c2ccccc2)cc1)C(=O)N[C@@H](CCCNC(=N)N)C(=O)N[C@@H](CCC(N)=O)C(=O)N[C@@H](CCCCN)C(=O)NCc1ccc(C(F)(F)F)cc1 [compound 38] ({Benzoyl(4-Ph)}-ARQK-X1) | ≤ 20 |
| CCCCCCNC(=O)[C@H](CCCCN)NC(=O)[C@H](CCC(N)=O)NC(=O)[C@H](CCCNC(=N)N)NC(=O)[C@H](C)NC(=O)CCCCCC [compound 69] (Heptanoyl-ARQK-NHHex) | ≤ 20 |
| CCCCCCC(=O)N[C@@H](C)CC(=O)N[C@@H](CCCNC(=N)N)C(=O)N[C@@H](CCC(N)=O)CC(=O)N[C@@H](CCCCN)C(N)=O [compound 70] | ≤ 20 |
| CCCCCCNC(=O)[C@H](CCCCN)NC(=O)C[C@H](CCC(N)=O)NC(=O)[C@H](CCCNC(=N)N)NC(=O)C[C@H](C)N [compound 71] | ≤ 20 |
| C[C@H](NC(=O)[C@H](CCCCN)NC(=O)c1ccccc1)C(=O)N[C@@H](CCCCN)C(N)=O [compound 73] (Bz-Lys-Ala-Lys-NH2) | ≤ 20 |
| C[C@H](NC(=O)[C@H](CCCCN)NC(=O)c1ccc(-c2cccs2)s1)C(=O)N[C@@H](CCCCN)C(N)=O [compound 75] | ≤ 20 |
| C[C@H](NC(=O)[C@H](CCCCN)NC(=O)c1ccc(-c2ccccc2)cc1)C(=O)N[C@@H](CCCCN)C(N)=O [compound 77] | ≤ 20 |
| CCCCCCNC(=O)[C@H](CCCCN)NC(=O)C[C@H](C)NC(=O)[C@H](C)NC(=O)C[C@H](CCCCN)NC(=O)CCCCCC [compound 79] | ≤ 20 |
| CCCCCCNC(=O)[C@H](CCCCN)NC(=O)[C@H](C)NC(=O)[C@H](C)NC(=O)[C@@H](N)CCCCN [compound 81] (H-KAAK-NHHex) | ≤ 20 |
| C[C@H](NC(=O)C[C@H](CCCCN)NC(=O)c1ccc(-c2cccs2)s1)C(=O)N[C@@H](C)CC(=O)N[C@@H](CCCCN)C(N)=O [compound 86] | ≤ 20 |
| COc1cccc(CNC(=O)[C@H](CCCCN)NC(=O)[C@H](C)NC(=O)[C@H](C)NC(=O)[C@H](CCCCN)NC(=O)c2ccc(-c3cccs3)s2)c1 [compound 87] (X2-KAAK-X3) | ≤ 20 |
| C[C@H](NC(=O)C[C@H](CCCCN)NC(=O)c1ccc(-c2ccccc2)cc1)C(=O)N[C@@H](C)CC(=O)N[C@@H](CCCCN)C(N)=O [compound 88] | ≤ 20 |
| C[C@H](NC(=O)[C@H](C)NC(=O)[C@H](CCCCN)NC(=O)c1ccc(-c2ccccc2)cc1)C(=O)N[C@@H](CCCCN)C(=O)NCc1ccc(C(F)(F)F)cc1 [compound 89] ({Benzoyl(4-Ph)}-KAAK-X1) | ≤ 20 |
| CCCCCCNC(=O)[C@H](CCCCN)NC(=O)[C@H](C)NC(=O)[C@H](CCCCN)NC(=O)CCCCCC [compound 94] | ≤ 20 |
| CCCCCCCCCCCCCCCC(=O)N[C@@H](CCCCN)C(=O)N[C@@H](Cc1c[nH]cn1)C(N)=O [compound 162] | ≤ 20 |
